Measured values reported in PMC5090701.
These are yes or no findings as the source states them, for the method shown. A result given as binding can be weak or reduced; the word gives no strength. For some assays here: Binding seen in cells or lysates may run through a third protein. For some assays here: Tags and fused reporters may be left off the sequences shown.

B1: Flag-LUBEL-RBR-C (domain or fragment, UniProt Q8IPJ3-1 2512-2892)
chain: QECELCMNSYPMNQMVSMLKCLHKCCKQCAKSYFTVQITDRSINDCSCPFCKLPELSNEAQHEDEHLEYFSNLDIFLKSILDNDVHELFQRKLRDRSLLQDPNFKWCIQCSSGFFARPKQKRLICPDCGSVTCAQCRKPWERQHEGSSCEAYLEWKRENDPELQAQGVQEHLAQNGIDCPKCKFRYSLARGGCMHFTCTQCKFEFCYGCARPFMMGAKCTVSTYCAKLGLHAHHPRNCLFYLRDKIPLQLQFLLKEQNVKFDTEPMQIKDESSSSSKARAQARCPIPLQKETPQGLVDTVCNTEVPDKHAGMCRTHYVEYLAGKVAKAGIDPLPIFDLTDCVQELRRRGIALPERGPWDTDEIYKNMCSEVIKKHIPLKSA
B2: LUBEL-RBR-C, recombinant (domain or fragment, UniProt Q8IPJ3-1 2512-2892)
chain: B1 chain

Tests used:
[1] = target: GST-dCYLD (Drosophila melanogaster); experiment: pull-down; agarose-immobilised GST-dCYLD incubated with total cell lysate of S2 cells transfected with Flag-RBR-C; immunoblot with anti-Flag antibody; only the target purified
[2] = target: GST-dCYLD (Drosophila melanogaster); experiment: pull-down; immobilised GST-dCYLD incubated with LUBEL-RBR-C purified from E. coli (500 ng of candidate protein, 50 mM Tris-HCl pH 7.5, 150 mM NaCl, 0.1% NP-40, 5 mM DTT, 4°C, 3 h); immunoblot with anti-LUBEL-RBR antibody; both purified

Row | Binder | binding [1] | binding [2]
1 | B1 | binds | 
2 | B2 |  | binds
